The other results are listed elsewhere or left out. The list holds hits alone, and they repeat only in part.
Tests used:
Experiment in all cases: PRISMA enrichment of interactor (LFQ) in peptide spot vs all other peptide spots (log2 fold change); higher = stronger / more specific binding of the interactor to the peptide
[1] = biological target: SMNDC1, O75940
Experimental: (§1)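 PRISMA: 221 full-length sORF-encoded peptides (3-15 aa), plus SOS1/GLUT1 control peptides, were spot-synthesized on cellulose membranes in triplicate. Membranes were incubated with HEK293T lysate, and bound proteins were identified by LC-MS/MS with LFQ. Enrichment is the log2 fold change versus all other peptide spots; only significant interactors are listed (cutoff c=6, x0=2.8).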

Sequences of proteins named here, by UniProt entry; tags and fusion partners are left off.
TPX2, Q9ULW0, UniProt Q9ULW0, whole entry: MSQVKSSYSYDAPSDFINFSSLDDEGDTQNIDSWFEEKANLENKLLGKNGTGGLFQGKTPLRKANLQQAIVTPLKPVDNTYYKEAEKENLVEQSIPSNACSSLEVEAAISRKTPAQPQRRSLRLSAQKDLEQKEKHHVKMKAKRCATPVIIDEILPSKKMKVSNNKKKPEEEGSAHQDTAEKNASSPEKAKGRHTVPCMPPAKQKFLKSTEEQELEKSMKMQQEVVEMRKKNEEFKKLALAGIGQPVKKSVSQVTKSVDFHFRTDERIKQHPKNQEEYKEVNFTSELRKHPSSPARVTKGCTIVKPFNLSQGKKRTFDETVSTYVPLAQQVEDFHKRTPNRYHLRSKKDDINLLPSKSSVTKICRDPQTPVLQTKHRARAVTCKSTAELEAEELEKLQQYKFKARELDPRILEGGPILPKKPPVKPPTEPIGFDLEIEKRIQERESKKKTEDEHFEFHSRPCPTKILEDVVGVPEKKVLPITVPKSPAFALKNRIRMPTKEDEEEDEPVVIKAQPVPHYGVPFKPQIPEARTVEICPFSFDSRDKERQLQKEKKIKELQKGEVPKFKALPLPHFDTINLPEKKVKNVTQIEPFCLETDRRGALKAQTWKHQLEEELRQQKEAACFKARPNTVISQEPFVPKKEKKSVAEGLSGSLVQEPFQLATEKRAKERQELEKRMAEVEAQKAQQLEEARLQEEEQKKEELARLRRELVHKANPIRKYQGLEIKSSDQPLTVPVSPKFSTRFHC
WDR82, Q6UXN9, UniProt Q6UXN9, whole entry: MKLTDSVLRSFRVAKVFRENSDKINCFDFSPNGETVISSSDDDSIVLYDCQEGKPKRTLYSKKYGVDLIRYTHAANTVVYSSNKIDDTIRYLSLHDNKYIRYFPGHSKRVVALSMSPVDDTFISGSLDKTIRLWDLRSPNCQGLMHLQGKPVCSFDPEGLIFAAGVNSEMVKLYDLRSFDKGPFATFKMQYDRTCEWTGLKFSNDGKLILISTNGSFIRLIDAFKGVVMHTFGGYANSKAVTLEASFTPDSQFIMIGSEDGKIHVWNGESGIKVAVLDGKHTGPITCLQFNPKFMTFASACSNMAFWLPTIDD

[2] = biological target: SNW1, Q13573
Experimental: as §1

[3] = biological target: SPOUT1, Q5T280
Experimental: as §1

[4] = biological target: SRI, P30626
Experimental: as §1

[5] = biological target: STRBP, Q96SI9
Experimental: as §1

[6] = biological target: TACO1, Q9BSH4
Experimental: as §1

[7] = biological target: TAOK2, Q9UL54
Experimental: as §1

[8] = biological target: TIA1, P31483
Experimental: as §1

[9] = biological target: TIAL1, Q01085
Experimental: as §1

[10] = biological target: TK1, P04183
Experimental: as §1

[11] = biological target: TLN1, Q9Y490
Experimental: as §1

[12] = biological target: TNIK, Q9UKE5
Experimental: as §1

[13] = biological target: TOMM34, Q15785
Experimental: as §1

[14] = biological target: TOX4, O94842
Experimental: as §1

[15] = biological target: TPX2, Q9ULW0
Experimental: as §1

[16] = biological target: TRIM32, Q13049
Experimental: as §1

[17] = biological target: TRPT1, Q86TN4
Experimental: as §1

[18] = biological target: TXLNA, P40222
Experimental: as §1

[19] = biological target: TXLNG, Q9NUQ3
Experimental: as §1

[20] = biological target: UTP14A, Q9BVJ6
Experimental: as §1

[21] = biological target: WDR11, Q9BZH6
Experimental: as §1

[22] = biological target: WDR82, Q6UXN9
Experimental: as §1

[23] = biological target: WTAP, Q15007
Experimental: as §1

[24] = biological target: XRN2, Q9H0D6
Experimental: as §1

[25] = biological target: YRDC, Q86U90
Experimental: as §1

[26] = biological target: YTHDC2, Q9H6S0
Experimental: as §1

[27] = biological target: ZC3H15, Q8WU90
Experimental: as §1

[28] = biological target: ZC3HAV1L, Q96H79
Experimental: as §1

[29] = biological target: ZNF207, O43670
Experimental: as §1

[30] = biological target: ZNF512, Q96ME7
Experimental: as §1

[31] = biological target: ZNF638, Q14966
Experimental: as §1

[32] = biological target: ZNF768, Q9H5H4
Experimental: as §1

Q: MVDNFYF [ASPN] was tested. Which “PRISMA enrichment of interactor (log2)” value [1] did it give?
A: 6.57

Q: What about the “PRISMA enrichment of interactor (log2)” value [2] of the same binder?
A: 7.01

Q: What about the “PRISMA enrichment of interactor (log2)” value [3] of the same binder?
A: 5.77

Q: And the “PRISMA enrichment of interactor (log2)” value [4]?
A: 6.08

Q: What about the “PRISMA enrichment of interactor (log2)” value [5] of the same binder?
A: 7.59

Q: What about the “PRISMA enrichment of interactor (log2)” value [6] of the same binder?
A: 5.01

Q: And the “PRISMA enrichment of interactor (log2)” value [7]?
A: 5.59

Q: What about the “PRISMA enrichment of interactor (log2)” value [8] of the same binder?
A: 6.01

Q: And the “PRISMA enrichment of interactor (log2)” value [9]?
A: 5.02

Q: And the “PRISMA enrichment of interactor (log2)” value [10]?
A: 3.9

Q: What about the “PRISMA enrichment of interactor (log2)” value [11] of the same binder?
A: 7.13

Q: And the “PRISMA enrichment of interactor (log2)” value [12]?
A: 4.38

Q: And the “PRISMA enrichment of interactor (log2)” value [13]?
A: 6.77

Q: What about the “PRISMA enrichment of interactor (log2)” value [14] of the same binder?
A: 3.94

Q: What about the “PRISMA enrichment of interactor (log2)” value [15] of the same binder?
A: 6.38

Q: And the “PRISMA enrichment of interactor (log2)” value [16]?
A: 5.07

Q: What about the “PRISMA enrichment of interactor (log2)” value [17] of the same binder?
A: 4.03

Q: And the “PRISMA enrichment of interactor (log2)” value [18]?
A: 6.63

Q: What about the “PRISMA enrichment of interactor (log2)” value [19] of the same binder?
A: 6.47

Q: And the “PRISMA enrichment of interactor (log2)” value [20]?
A: 6.04

Q: What about the “PRISMA enrichment of interactor (log2)” value [21] of the same binder?
A: 5.85

Q: And the “PRISMA enrichment of interactor (log2)” value [22]?
A: 4.11

Q: What about the “PRISMA enrichment of interactor (log2)” value [23] of the same binder?
A: 4.55

Q: What about the “PRISMA enrichment of interactor (log2)” value [24] of the same binder?
A: 5.18

Q: And the “PRISMA enrichment of interactor (log2)” value [25]?
A: 4.11

Q: What about the “PRISMA enrichment of interactor (log2)” value [26] of the same binder?
A: 4.94

Q: What about the “PRISMA enrichment of interactor (log2)” value [27] of the same binder?
A: 5.26

Q: And the “PRISMA enrichment of interactor (log2)” value [28]?
A: 3.97

Q: And the “PRISMA enrichment of interactor (log2)” value [29]?
A: 4.28

Q: And the “PRISMA enrichment of interactor (log2)” value [30]?
A: 5.43

Q: What about the “PRISMA enrichment of interactor (log2)” value [31] of the same binder?
A: 7.89

Q: And the “PRISMA enrichment of interactor (log2)” value [32]?
A: 5.97

Reference: the supplement of paper PMC10032668
